# Reference: PubChem BioAssay AID504467 (National Center for Advancing Translational Sciences (NCATS), 2011)
# Out of some 330,000 compounds screened, about 7,700 (2.3%) were called active. The inconclusive results got no clear call from the source; some entries with a clear call stand among them for comparison. The call rests on the fitted dose curve; in most records, active means well fitted inhibition curve with a large enough effect; inconclusive means small, poorly fitted or top-dose-only effect, or effect the other way; inactive means flat fitted curve, though single readings scatter. Potencies beside an inconclusive call are fits to weak or partial responses and may not hold up.
# Assay: qHTS screen for small molecules that inhibit ELG1-dependent DNA repair in human embryonic kidney (HEK293T) cells expressing luciferase-tagged ELG1; further: nearly all actives have a fitted effect of over 55% in size
# Settings: HEK293T ELG1-luciferase reporter, luminescence, 16 h, DNA damage induced by 5-fluorouridine; activity change, negative = inhibition: at 46.1 µM (top of the series)
# Outline: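 Luminescence from the luciferase reporter, measured 30 min after ONE-Glo reagent at room temperature, was the read-out. Beforehand, 2,000 cells per well were exposed for 16 hr at 37 °C to 5-fluorouridine together with compound or vehicle.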
# On the % scale 0 is the no-effect control and ±100 the full control effect; potency means the concentration at half of the fitted maximal effect.
SMILES,"activity change, negative = inhibition",Potency
CC1CCN(c2ccc(NC(=O)C3CCCN3S(=O)(=O)c3ccc(F)cc3)cc2)CC1 (centres undefined),inactive: -7.33%,
COc1cc(C(=O)NC(=S)Nc2cccc(-c3cc4ccccc4oc3=O)c2)cc(OC)c1OC,,"inconclusive: 20.6 µM [inhibitor, single point]"
COc1cc(O)c2c(=O)c3c(OC)c(O)ccc3oc2c1,,"inconclusive: 23.1 µM [activator, partial curve]"
CC1CCCN(C(=O)COC(=O)c2cc(Br)ccc2O)C1 (centres undefined),,"inconclusive: 23.1 µM [activator, single point]"
Cc1ccccc1C(=O)O/N=C(\N)c1ccccc1,,"inconclusive: 2.59 µM [activator, partial curve]"
Cc1cccc(NC(=O)c2cc3ccccc3o2)c1,,"inconclusive: 4.11 µM [activator, partial curve]"
O=C(O)c1ccccc1C(=O)NCCc1ccc(Cl)cc1,inactive: 0%,
CCCn1c(C(O)c2ccc(OC)c(OC)c2)nc2ccccc21 (centres undefined),,"inconclusive: 1.12 µM [inhibitor, partial curve, poor fit]"
C=CCn1c(SCC(=O)Nc2cc(C)on2)nnc1C1COc2ccccc2O1 (centres undefined),,"inconclusive: 1.16 µM [inhibitor, single point]"
Cc1cc(Cl)cc2sc(NC(=O)C3CC3)nc12,,"inconclusive: 23.1 µM [activator, partial curve, poor fit]"
Cc1cc(C)c(C)c(S(=O)(=O)ON2C(=O)c3ccccc3C2=O)c1C,,"inconclusive: 35.5 µM [inhibitor, single point]"
CCOc1ccc(Oc2ccc(C(F)(F)F)cc2NC(=O)C2=COCCO2)cc1,inactive: -8.69%,
Cc1ccccc1C(=O)NNc1ccc(-c2csnn2)cc1,,"inconclusive: 25.9 µM [activator, partial curve, poor fit]"
CCOc1ccc(NC(=O)c2ccc(NC(=O)COC(=O)c3ccc(NC(=O)CC#N)cc3)cc2)cc1,,"inconclusive: 25.9 µM [activator, single point]"
O=C(COC(=O)c1ccc(O)cc1O)c1ccc2c(c1)OCCO2,inactive: 0%,
Cc1cc(C)cc(OCC(=O)Nc2ccncc2)c1,,active: 15.8 µM
COc1cc(OC)cc(-c2nc3ccccc3c(=O)n2OC(=O)c2ccc(C)c(C)c2)c1,,active: 10.3 µM
COc1ccc(-c2cc(N)n(S(=O)(=O)c3ccc(C)cc3)n2)c(OC)c1,,"inconclusive: 32.6 µM [inhibitor, partial curve, poor fit]"
CC(=O)Oc1ccc2ccccc2c1C(NC(=O)Cc1ccccc1)c1ccc(Cl)cc1 (centres undefined),inactive: -19.3%,

# Reformatted: two of the compounds above
SMILES | activity change, negative = inhibition | Potency
C=CCn1c(SCC(=O)Nc2cc(C)on2)nnc1C1COc2ccccc2O1 (centres undefined) |  | inconclusive: 1.16 µM [inhibitor, single point]
COc1cc(OC)cc(-c2nc3ccccc3c(=O)n2OC(=O)c2ccc(C)c(C)c2)c1 |  | active: 10.3 µM
